Measured values reported in patent US20220331500A1, “DIALYZER” (SCHOOL JURIDICAL PERSON THE KITASATO INSTITUTE, priority 2019, published 2022).

Test system: Sprague Dawley rats
Assay: Measurement of NO concentration in blood and dialysate during rat blood dialysis (OxiSelect Nitrite/Nitrate kit)
Format: in vivo
Details: for NO concentration in the dialysate: calculated from the 800 ppm result
Method: NO gas of which the concentration was adjusted to 200 ppm, 400 ppm, and 800 ppm was added to the dialysate via a gas exchanger. As a control group, nitrogen gas (N2) was added to the dialysate instead of NO gas.
For a group in which 800 ppm of NO gas was supplied to the dialysate, the dialysate was supplied to the blood (in) on an arterial side of the dialysis unit, the blood (out) on a venous side of the dialysis unit, the dialysate (in) in the dialysate supply channel for supplying the dialysate to the dialysis unit, and the dialysate (out) in the dialysate discharge channel for discharging the dialysate from the dialysis unit were collected 1 hour after the start of circulation, and the NO concentration was measured using a commercially available kit (“OxiSelect In Vitro Nitric Oxide (Nitrite/Nitrate) Assay Kit (Colorimetric)” made by Cell Biolabs, Inc.). The NO concentration was measured as the sum of the concentrations of NO2^− and NO3^− after the NO was completely hydrolyzed. For this reason, hereinafter, there is a case where the total concentration of […] is referred to as the NO concentration.

nitric oxide [NO gas] was tested, and the “NO concentration in the dialysate” value (200 ppm NO gas supplied) was 0.5 µM, the “NO concentration in the dialysate” value (400 ppm NO gas supplied) was 1 µM and the “NO concentration in the dialysate in the dialysate supply channel” value (800 ppm NO gas supplied to the dialysate, 1 hour after start of circulation, sum of NO2- and NO3-) was 2 µM.
